This is one part of the list.

By UniProt entry, the sequences of proteins in these tests, tags left out.
UniProt Q0JBA9, entry or part of it: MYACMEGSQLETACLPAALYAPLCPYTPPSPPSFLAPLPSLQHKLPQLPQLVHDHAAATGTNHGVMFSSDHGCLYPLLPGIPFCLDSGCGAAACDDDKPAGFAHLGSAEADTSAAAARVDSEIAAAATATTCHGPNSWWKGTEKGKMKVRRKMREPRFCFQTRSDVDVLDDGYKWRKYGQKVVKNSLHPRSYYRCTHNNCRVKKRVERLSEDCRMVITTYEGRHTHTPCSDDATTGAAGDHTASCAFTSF

The experiment deals with OsWRKY34 (Oryza sativa, UniProt Q0JBA9 1-250). Briefly: protein-binding microarray (RPBM); PBS, 2% BSA, 51.3 ng/ul salmon testes DNA, 50 uM zinc acetate, 200 nM TF, 25 C, 1 h; high values mean tight binding. To be noted: protein: recombinant; tags: N-terminal polyhistidine and DsRed monomer fusion (pET32a); label: CyDye5-dUTP incorporated in the synthesized complementary strand; 3' TTTTT single-stranded linker to array surface; dsDNA, one strand shown. The method in brief:
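The binding signal is fluorescence intensity per array feature (arbitrary units). Readings came from an Axon 4000B scanner after a washed, 2% BSA-blocked, double-stranded custom Agilent array had been incubated for 1 h at 25 °C with 200 nM protein and 50 µM zinc acetate. The protein was a Ni–NTA-purified transcription factor fused N-terminally to polyhistidine and DsRed, expressed in E. coli BL21-CodonPlus.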
“TATTAGTTACGGTGGTGTTATTCCTTGGTTTGTCTAGTTTCGGAGTCACCTAGTGCAG”: the binding signal is 15900 fluorescence intensity (a.u.).
“CGCCACTTGTCTTCGTCTTCCAGCTCCGCGCACCACCCACCGGAGTCACCTAGTGCAG”: the binding signal is 9470 fluorescence intensity (a.u.).
With “TCCAACCTCTCATACACACATAATGTCCGTGCTGCATTCCCGGAGTCACCTAGTGCAG” the figure was 9110 fluorescence intensity (a.u.); with “CCCCTCCGCCTCAACCCGCACACTTGTCCGGCCCAAAAAGCGGAGTCACCTAGTGCAG”, 8380 fluorescence intensity (a.u.).
“GGGCGCTTGGTGGCGGTGGGGCGTCGAGGGCGGGCGGCAGCGGAGTCACCTAGTGCAG”: the binding signal is 13300 fluorescence intensity (a.u.).
For “CCGCTCTCTTGCCGTTACTCATGCCCCTCGGTGAAGACGACGGAGTCACCTAGTGCAG” the value was 8760 fluorescence intensity (a.u.); for “TCCTATAAACTCCCACTGACAACTGGGACCCGCATATCCGCGGAGTCACCTAGTGCAG”, 9180 fluorescence intensity (a.u.); for “ATGCGGCGGTGGCGGGAGGGAGGGACAGGGTTGGTGAAGTCGGAGTCACCTAGTGCAG”, 17400 fluorescence intensity (a.u.).
With “CTCCTTCGTCGCCTCTGCGACCGCCACGCGCCACCCATCTCGGAGTCACCTAGTGCAG” the figure was 9570 fluorescence intensity (a.u.).
For “TGACTAGCTATTTTTCCATTTCTTTTTGGCGGCTAACTGGCGGAGTCACCTAGTGCAG” the value was 8260 fluorescence intensity (a.u.); for “CAATGTTTGTTGACTTGCCAATCCGACCGATTTGCCAGTTCGGAGTCACCTAGTGCAG”, 8810 fluorescence intensity (a.u.).
For “ACACCTGCCATTATACTATAGATCCGCTCCTGCTCTTCCACGGAGTCACCTAGTGCAG”, the binding signal was 9120 fluorescence intensity (a.u.).
Consider “TGCTTATTATTACACTTATTTGTTCAAAGCTACTGTTAGTCGGAGTCACCTAGTGCAG”, for which the binding signal was 8440 fluorescence intensity (a.u.).
In the case of “CTTCCTTTTTTTTACACCAATTGTTTTTTTTCTAGTAGATCGGAGTCACCTAGTGCAG”, the binding signal is 8430 fluorescence intensity (a.u.).
On to “CCGAAATCCCCAAAATTTTGGTCTTTTACTCGCACTCTTGCGGAGTCACCTAGTGCAG”, for which the binding signal was 8250 fluorescence intensity (a.u.).
With “ACTGTCTCTCACTTAGCTGTTGCTAGCTGTCCCCTTTCCCCGGAGTCACCTAGTGCAG” the figure was 8160 fluorescence intensity (a.u.); with “ACTTTTACATAGAATTTTTTTTTGAACACACCGTTTAGCACGGAGTCACCTAGTGCAG”, 8510 fluorescence intensity (a.u.).
As for “CCCATCATCCGCCCATGTCCCTGATTGATTGAAATTCATTCGGAGTCACCTAGTGCAG”, the binding signal was 8340 fluorescence intensity (a.u.).
For the sequence “TGGGATGTATGGCTCGTGTCGGCTGCAGCAACGCCGACCTCGGAGTCACCTAGTGCAG”, the binding signal was 8120 fluorescence intensity (a.u.).
Turning to “CTCTCATTTTTATTACACATTGATTGATATCTGCAGCAAGCGGAGTCACCTAGTGCAG”, the binding signal is 10100 fluorescence intensity (a.u.).
Turning to “TTGTCGATGTTGAAGCACCTTAATAACTTCATCAATTTCACGGAGTCACCTAGTGCAG”, the binding signal is 8030 fluorescence intensity (a.u.).
For “ATTGAACTGAGAGTATACTACTCCTACTTTGCTTTTCTGCCGGAGTCACCTAGTGCAG”, the binding signal is 8120 fluorescence intensity (a.u.).
For “GGGGCAGACCTTCCTGTGGCGCCGCACGTCTCTCTCCCCGCGGAGTCACCTAGTGCAG”, the binding signal is 8630 fluorescence intensity (a.u.).
Consider “AAAACTGACTATCATCTGGCCATTCTCAGCTCCCCGAAACCGGAGTCACCTAGTGCAG”, for which the binding signal was 8900 fluorescence intensity (a.u.).
For the sequence “TATGGTGCTAAAAAAGAAAACCAGGTGGAGGGAGGGGAGGCGGAGTCACCTAGTGCAG”, the binding signal is 9500 fluorescence intensity (a.u.).
With “CATCCGGTATTAAAAGTTTAGGGTGGGCAATATCTGGTTTCGGAGTCACCTAGTGCAG” the figure was 13300 fluorescence intensity (a.u.); with “CTCTATGTGTGGCTTATATTTTTAATTTTTTTAAAAAATTCGGAGTCACCTAGTGCAG”, 8690 fluorescence intensity (a.u.).
Regarding “GAGTATTCCATTTCCAAAATTGTGTGGTCTGGCCTTTCTCCGGAGTCACCTAGTGCAG”, the binding signal was 9570 fluorescence intensity (a.u.).
With “AGCATTCCTTCTAGTTCATTTTCTTGTCCTACTCGGAGGGCGGAGTCACCTAGTGCAG” the figure was 11500 fluorescence intensity (a.u.); with “TTTAGTTGTTGTTTAAGCTCAACCTCTGTTTGTGTTGATACGGAGTCACCTAGTGCAG”, 9400 fluorescence intensity (a.u.).
Turning to “GTGATTTGTTCTATATATTGACTCTTAATTAATGAGTTGACGGAGTCACCTAGTGCAG”, the binding signal is 8940 fluorescence intensity (a.u.).
For “AGAATTTCTGTTGTTCTGCTCTAGTATTTTTACGCCAACTCGGAGTCACCTAGTGCAG” the value was 10700 fluorescence intensity (a.u.); for “CATGTTTTGAGTATGCTGTTCCCTTGTTTCTGTTTTGATTCGGAGTCACCTAGTGCAG”, 9010 fluorescence intensity (a.u.); for “GGCTCCTCATCTCACACTCCGTACACCCAGTCCATACACCCGGAGTCACCTAGTGCAG”, 8860 fluorescence intensity (a.u.).
Consider “CATTTTTGTCTTTTTTGTTAGTTTACCGGTAGTTTTCGTGCGGAGTCACCTAGTGCAG”, for which the binding signal is 8650 fluorescence intensity (a.u.).
With “ATATGATTTTGTACAACAACTTTCCCATATATCTTTTTTACGGAGTCACCTAGTGCAG” the figure was 10200 fluorescence intensity (a.u.).
As to “GTGAGGTCTGTTTTCTTCGGGCGTACGGTTTCCTTTTTTTCGGAGTCACCTAGTGCAG”, the binding signal was 14100 fluorescence intensity (a.u.).
Turning to “CGGTATGGTTGATCCCTTGTATGTTTGTCCAGGCATCCGCCGGAGTCACCTAGTGCAG”, the binding signal is 8760 fluorescence intensity (a.u.).
For “CATTGTTCGTGCCCTTACTTTATCATCAATAAATAACACTCGGAGTCACCTAGTGCAG” the value was 8690 fluorescence intensity (a.u.); for “CATTTTCCTGGTATATATTCCGATCCGTTCCCTGGTTTCTCGGAGTCACCTAGTGCAG”, 11500 fluorescence intensity (a.u.).
With “TCGCTCTCTCTCTCTCTCTCTCTGCCCGTACACTCGGCGCCGGAGTCACCTAGTGCAG”, the binding signal was 8090 fluorescence intensity (a.u.).
Regarding “TCAGGCACAAAAGTTTCTTTCCCGGGTGGGGTCCACAAGTCGGAGTCACCTAGTGCAG”, the binding signal is 8250 fluorescence intensity (a.u.).

Source of the values: paper PMC7819943, “Rice protein-binding microarrays: a tool to detect cis-acting elements near promoter regions in rice”.
